PubChem BioAssay AID624291 (National Center for Advancing Translational Sciences (NCATS), 2012)
About 220 (0.063%) of roughly 350,000 compounds were called active. Inconclusive means that the source gave no clear call. Such entries were picked first, then a sample of the others. Calls come from the whole dose curve; as a rule, active = well fitted activation curve with a large enough effect; inconclusive = small, poorly fitted or top-dose-only effect; inactive = no such curve, though single readings can be large or run the other way. Potencies of inconclusive entries are doubtful fits and often do not repeat.

test: qHTS for Activators of Integrin-Mediated Alleviation for Muscular Dystrophy; conditions: alpha7betagal myoblasts, beta-gal FDG fluorescence, 48 h; activation: at 38.3 µM (top of the series); note: nearly all actives have a fitted effect of over 60% in size;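 for activation: 100% = response of the positive control SU9516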
Method in brief: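 alpha7betagal+/- myoblasts (passage 13, 250/well) treated 48 h at 37C with compounds at 1:260 dilution of DMSO stock. Lysed, then beta-galactosidase activity read as FDG fluorescence (ex 480/em 540) after 30 min, with pre-read for autofluorescence.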
Potency is the fitted concentration of half-maximal effect.

SMILES	activation	Potency
O=C(NCCOc1ccc(Cl)cc1)c1cccc(S(=O)(=O)N2CCCC2)c1	inactive: -13.6%	–
C/C(=N\NC(=O)c1ccncc1)c1cccc(NC(=O)c2ccc(Cl)s2)c1	–	inconclusive: 1 µM [activator, full curve, poor fit]
CCC(C)c1ccccc1NC(=O)C(C)NCCN(C)C (centres undefined)	–	inconclusive: 3.16 µM [activator, partial curve, poor fit]
CCn1cc([N+](=O)[O-])c(=O)c2cc(F)c(N3CCOCC3)cc21	–	inconclusive: 6.31 µM [activator, partial curve, poor fit]
COCCc1nnc(NC(=O)Cc2ccccc2)s1	–	inconclusive: 28.2 µM [activator, single point]
C/C(=N\Nc1ccc(Cl)cc1)c1ccncc1	–	inconclusive: 3.98 µM [activator, partial curve, poor fit]
Cc1ccc(C(=O)Nc2ccccc2OC(F)F)cc1	inactive: -1.6%	–
O=C(O)Cc1ccc(NS(=O)(=O)c2ccc3ccccc3c2)cc1	–	inconclusive: 28.2 µM [activator, single point]
O=C(/C=C/c1ccccc1)Nn1cnc2ccccc2c1=O	inconclusive: -51.7% [activator]	–
COC(=O)CCC(=O)Nc1ccc(N=Nc2ccccc2)cc1	–	inconclusive: 7.08 µM [activator, partial curve, poor fit]
CCOCCCN1C(=O)C(O)=C(C(C)=O)C1c1cccs1 (centres undefined)	–	inconclusive: 3.55 µM [activator, single point]
O=C(c1ccc(Cl)cc1)C1CCN(C(=S)Nc2ccccc2)CC1	–	inconclusive: 3.16 µM [activator, single point]
CCCCCCc1c(O)c2ccccc2[nH]c1=O	inactive: 10.8%	–
C=CC[C@H](CC(=O)N(CCO)Cc1ccccc1)C(=O)N[C@@H](COC(=O)[C@H](CC=C)CC(=O)OC(C)(C)C)Cc1c[nH]c2ccccc12	inactive: -42.6%	–
Cc1ccc(CNC(=O)CCSCc2ccccc2C)cc1	–	inconclusive: 11.2 µM [activator, single point]
CCC1(CC)Nc2ccccc2C(=O)N1c1ccc(OC)cc1	–	inconclusive: 22.4 µM [activator, single point]
O=C(NCc1ccccc1)C1=C[C@H](C2CC2)C[C@H](OCCCCO)O1	–	inconclusive: 5.01 µM [activator, single point]
COc1ccc(C/C(C)=N\NC(=O)c2c[nH]c3ccccc23)cc1OC	–	inconclusive: 3.16 µM [activator, single point]
COc1ccc(S(=O)(=O)N2CCOC2CNC(=O)C(=O)NCc2ccc(F)cc2)cc1 (centres undefined)	–	inconclusive: 12.6 µM [activator, partial curve, poor fit]

Single records, from the list above:
CCC1(CC)Nc2ccccc2C(=O)N1c1ccc(OC)cc1 is entered as Potency: inconclusive: 22.4 µM [activator, single point]
COC(=O)CCC(=O)Nc1ccc(N=Nc2ccccc2)cc1 is entered as Potency: inconclusive: 7.08 µM [activator, partial curve, poor fit]
